A short description of assay [1]: BSK_3C_SRB: Viability Assessment in the BioMAP Diversity Plus: 3C Assay (AID 2283023).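 Further: cells read 24 h after compound dosing; fitted both ways against DMSO so a hit may be signal rise or drop.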 To be noted: primary human endothelial cells (HUVEC). In a few lines: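 Cells were dosed with chemical, cultured 24 h, fixed with 10% TCA, stained with 0.1% SRB and read at 560 nm. Human umbilical vein endothelium was used; DMSO served as negative control and baseline.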
Read-out in assay [2]: Fatty acid synthase (Homo sapiens) (UniProt P49327)
Nature of the assay: LTEA_HepaRG_FASN: Life Technologies and Expression Analysis (LTEA) Assay for Fatty Acid Synthase (FASN) using HepaRG (AID 2283448). Particulars: actives raise or lower the signal; mRNA level, 48 h. In a few lines: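 Differentiated human HepaRG cells were exposed for 48 h in serum-free induction medium to eight half-log concentrations up to 100 uM in 0.5% DMSO, in duplicate. FASN mRNA was quantified by TaqMan qRT-PCR, normalized to ACTB/GAPDH/POLR2A, and fitted bidirectionally against DMSO.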

Protein sequences, listed by entry. Tags and fused reporters are not part of them. Lines headed by an entry give the natural chain unless they say otherwise; changes in a name come on top.
UniProt P49327, whole entry, looked up: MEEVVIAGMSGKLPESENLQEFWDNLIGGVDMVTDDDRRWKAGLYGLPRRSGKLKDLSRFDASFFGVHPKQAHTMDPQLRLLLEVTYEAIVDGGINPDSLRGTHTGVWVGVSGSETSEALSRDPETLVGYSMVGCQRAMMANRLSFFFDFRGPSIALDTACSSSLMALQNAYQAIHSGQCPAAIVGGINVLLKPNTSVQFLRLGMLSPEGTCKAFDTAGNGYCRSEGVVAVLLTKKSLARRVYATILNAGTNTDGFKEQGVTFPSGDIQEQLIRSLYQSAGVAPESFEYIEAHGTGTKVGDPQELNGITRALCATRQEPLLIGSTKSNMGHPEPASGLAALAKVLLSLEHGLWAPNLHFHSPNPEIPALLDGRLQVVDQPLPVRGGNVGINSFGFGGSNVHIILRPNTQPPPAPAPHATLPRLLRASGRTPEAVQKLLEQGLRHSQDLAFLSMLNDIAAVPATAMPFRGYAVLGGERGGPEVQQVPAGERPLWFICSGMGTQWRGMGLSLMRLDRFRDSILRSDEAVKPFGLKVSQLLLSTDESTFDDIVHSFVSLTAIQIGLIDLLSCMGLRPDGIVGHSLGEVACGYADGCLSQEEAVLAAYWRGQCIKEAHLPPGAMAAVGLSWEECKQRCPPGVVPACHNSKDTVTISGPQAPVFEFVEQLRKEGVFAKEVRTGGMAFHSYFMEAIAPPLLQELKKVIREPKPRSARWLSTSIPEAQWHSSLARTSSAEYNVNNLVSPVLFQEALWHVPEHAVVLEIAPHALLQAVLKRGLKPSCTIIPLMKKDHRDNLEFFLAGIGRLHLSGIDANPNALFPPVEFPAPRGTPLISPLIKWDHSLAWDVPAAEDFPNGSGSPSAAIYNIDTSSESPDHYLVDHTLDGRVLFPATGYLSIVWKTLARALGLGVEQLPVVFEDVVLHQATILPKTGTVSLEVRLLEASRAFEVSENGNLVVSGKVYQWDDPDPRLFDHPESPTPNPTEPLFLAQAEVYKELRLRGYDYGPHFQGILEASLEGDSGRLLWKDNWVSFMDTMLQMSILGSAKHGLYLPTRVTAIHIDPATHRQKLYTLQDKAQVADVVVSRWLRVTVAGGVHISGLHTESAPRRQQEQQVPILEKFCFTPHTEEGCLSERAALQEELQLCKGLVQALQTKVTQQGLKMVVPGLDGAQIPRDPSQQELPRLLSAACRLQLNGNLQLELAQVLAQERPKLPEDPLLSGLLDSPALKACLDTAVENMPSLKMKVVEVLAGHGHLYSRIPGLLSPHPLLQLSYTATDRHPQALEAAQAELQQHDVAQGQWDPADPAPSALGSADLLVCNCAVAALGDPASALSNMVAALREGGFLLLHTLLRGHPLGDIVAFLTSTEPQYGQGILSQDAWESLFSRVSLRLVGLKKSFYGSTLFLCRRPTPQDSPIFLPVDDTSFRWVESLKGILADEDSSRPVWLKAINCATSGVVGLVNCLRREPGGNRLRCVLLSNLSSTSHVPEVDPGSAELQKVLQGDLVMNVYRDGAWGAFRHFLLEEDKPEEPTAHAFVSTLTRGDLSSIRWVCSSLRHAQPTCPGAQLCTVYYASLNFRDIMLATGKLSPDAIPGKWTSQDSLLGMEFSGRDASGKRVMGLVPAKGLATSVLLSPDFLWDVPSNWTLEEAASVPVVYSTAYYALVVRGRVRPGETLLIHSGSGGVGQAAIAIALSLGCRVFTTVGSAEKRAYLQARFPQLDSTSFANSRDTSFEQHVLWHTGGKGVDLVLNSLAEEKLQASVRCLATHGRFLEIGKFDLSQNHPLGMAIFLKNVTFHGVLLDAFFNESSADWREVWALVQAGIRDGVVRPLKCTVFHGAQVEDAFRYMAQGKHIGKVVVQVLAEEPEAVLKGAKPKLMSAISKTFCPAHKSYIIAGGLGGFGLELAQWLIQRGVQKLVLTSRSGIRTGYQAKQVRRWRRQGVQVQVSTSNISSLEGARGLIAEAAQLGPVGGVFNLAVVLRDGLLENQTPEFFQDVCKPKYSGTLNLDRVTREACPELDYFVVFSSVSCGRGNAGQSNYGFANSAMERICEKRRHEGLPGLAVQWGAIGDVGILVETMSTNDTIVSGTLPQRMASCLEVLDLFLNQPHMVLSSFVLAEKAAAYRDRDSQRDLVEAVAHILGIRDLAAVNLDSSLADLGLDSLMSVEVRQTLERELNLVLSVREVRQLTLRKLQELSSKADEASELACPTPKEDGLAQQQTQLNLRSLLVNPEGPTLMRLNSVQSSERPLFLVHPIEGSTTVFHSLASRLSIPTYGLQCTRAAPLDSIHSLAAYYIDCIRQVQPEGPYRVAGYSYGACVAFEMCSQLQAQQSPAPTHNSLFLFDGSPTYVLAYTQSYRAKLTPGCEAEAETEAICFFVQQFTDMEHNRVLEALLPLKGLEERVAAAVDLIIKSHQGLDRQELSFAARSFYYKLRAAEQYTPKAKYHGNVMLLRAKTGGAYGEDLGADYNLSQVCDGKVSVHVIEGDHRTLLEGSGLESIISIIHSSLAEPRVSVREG
UniProt P28702: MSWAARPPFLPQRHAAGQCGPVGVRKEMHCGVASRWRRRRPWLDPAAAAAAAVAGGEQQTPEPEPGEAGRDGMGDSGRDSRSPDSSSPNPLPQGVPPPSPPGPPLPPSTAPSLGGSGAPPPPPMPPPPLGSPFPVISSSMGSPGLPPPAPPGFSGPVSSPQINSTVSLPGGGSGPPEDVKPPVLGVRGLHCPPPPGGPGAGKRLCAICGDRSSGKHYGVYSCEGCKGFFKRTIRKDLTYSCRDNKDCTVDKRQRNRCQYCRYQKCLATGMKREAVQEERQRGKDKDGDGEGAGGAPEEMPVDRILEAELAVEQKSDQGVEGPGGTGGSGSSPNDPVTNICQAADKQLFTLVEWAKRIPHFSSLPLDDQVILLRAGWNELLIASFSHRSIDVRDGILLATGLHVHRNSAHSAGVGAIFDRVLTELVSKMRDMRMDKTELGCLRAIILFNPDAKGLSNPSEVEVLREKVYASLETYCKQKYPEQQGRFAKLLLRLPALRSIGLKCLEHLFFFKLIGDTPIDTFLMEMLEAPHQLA
UniProt P10635, whole entry, looked up: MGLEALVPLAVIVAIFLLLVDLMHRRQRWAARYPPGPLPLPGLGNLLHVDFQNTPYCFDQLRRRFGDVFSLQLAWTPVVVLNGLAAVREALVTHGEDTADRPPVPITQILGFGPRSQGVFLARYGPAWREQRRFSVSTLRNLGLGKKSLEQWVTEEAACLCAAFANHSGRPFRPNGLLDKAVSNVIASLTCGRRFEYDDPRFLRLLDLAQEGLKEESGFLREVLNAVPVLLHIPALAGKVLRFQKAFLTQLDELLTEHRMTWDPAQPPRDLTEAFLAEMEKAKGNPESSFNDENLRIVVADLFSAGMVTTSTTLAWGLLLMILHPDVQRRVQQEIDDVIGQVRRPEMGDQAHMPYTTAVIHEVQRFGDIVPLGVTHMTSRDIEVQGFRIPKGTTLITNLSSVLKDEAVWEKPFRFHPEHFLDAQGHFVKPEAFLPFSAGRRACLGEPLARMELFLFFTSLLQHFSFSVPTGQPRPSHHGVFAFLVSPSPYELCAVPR
UniProt P04637, whole entry, looked up: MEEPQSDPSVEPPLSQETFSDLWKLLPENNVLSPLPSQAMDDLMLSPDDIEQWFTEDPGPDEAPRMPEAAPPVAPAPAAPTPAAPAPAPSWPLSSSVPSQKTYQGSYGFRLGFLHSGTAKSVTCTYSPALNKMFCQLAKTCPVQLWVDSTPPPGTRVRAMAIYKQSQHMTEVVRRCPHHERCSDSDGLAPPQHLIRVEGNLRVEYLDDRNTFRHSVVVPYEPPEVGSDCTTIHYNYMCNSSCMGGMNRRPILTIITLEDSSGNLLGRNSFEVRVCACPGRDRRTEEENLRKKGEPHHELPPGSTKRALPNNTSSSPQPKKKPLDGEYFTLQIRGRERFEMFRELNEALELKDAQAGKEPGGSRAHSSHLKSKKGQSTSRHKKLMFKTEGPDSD
UniProt P03372, whole entry, looked up: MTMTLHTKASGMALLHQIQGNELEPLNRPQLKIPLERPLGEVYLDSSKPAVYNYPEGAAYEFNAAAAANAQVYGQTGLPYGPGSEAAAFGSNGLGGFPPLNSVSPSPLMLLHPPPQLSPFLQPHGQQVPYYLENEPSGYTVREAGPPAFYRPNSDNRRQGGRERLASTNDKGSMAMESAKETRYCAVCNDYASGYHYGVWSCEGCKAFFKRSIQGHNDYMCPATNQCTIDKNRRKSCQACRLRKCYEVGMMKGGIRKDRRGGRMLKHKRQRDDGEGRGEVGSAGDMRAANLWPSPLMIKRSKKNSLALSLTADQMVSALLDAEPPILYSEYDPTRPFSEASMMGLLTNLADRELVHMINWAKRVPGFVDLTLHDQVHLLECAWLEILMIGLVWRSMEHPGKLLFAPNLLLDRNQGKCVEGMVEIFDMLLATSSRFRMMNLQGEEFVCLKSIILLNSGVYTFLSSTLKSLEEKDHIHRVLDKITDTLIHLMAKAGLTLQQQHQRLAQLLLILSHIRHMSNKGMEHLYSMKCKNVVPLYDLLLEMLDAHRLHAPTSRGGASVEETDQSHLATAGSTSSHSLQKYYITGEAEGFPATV
UniProt Q92731, whole entry, looked up: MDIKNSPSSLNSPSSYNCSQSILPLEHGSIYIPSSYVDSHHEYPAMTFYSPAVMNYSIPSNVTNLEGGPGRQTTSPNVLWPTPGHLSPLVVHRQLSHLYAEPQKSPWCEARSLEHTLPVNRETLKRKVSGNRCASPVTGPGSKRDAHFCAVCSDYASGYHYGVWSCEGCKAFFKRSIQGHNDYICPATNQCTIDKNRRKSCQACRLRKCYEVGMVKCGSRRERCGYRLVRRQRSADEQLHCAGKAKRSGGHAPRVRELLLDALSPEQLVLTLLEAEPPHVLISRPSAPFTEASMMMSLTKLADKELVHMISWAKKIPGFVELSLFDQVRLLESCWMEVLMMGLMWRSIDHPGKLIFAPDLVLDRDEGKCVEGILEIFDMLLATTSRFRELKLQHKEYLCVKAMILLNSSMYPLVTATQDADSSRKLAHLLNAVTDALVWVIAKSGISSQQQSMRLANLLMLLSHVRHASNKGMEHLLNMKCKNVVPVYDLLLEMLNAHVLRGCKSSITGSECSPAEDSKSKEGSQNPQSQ
UniProt P19793: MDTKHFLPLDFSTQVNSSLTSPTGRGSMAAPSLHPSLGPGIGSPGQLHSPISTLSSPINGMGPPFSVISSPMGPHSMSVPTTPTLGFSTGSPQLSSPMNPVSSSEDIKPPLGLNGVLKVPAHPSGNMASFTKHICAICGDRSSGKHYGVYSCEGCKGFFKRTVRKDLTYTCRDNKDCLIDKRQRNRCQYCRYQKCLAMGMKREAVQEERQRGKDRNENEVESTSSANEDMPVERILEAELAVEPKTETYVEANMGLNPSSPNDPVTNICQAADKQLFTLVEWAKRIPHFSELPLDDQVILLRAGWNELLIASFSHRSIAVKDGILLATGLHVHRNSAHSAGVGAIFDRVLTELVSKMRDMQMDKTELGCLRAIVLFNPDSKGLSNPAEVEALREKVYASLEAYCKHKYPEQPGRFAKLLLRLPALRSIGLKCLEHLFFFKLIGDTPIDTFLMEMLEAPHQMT

Assay [3] has as its target human Retinoid X Receptor beta (RXRb), RXRB (gene 6257) (UniProt P28702). Nature of the assay: ATG_RXRb_TRANS: Attagene TRANS-FACTORIAL HepG2 Assay for human Retinoid X Receptor beta (RXRb) (AID 2283013; active means hit-call score of the fitted dose curve at least 0.9, where 1 is the maximum). In a few lines:
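HepG2 cells transiently transfected with multiplexed reporter units driven by GAL4-UAS and exogenous chimeric NR-Gal4 proteins; treated 24 h. Reporter mRNA measured by RT-PCR, 6-FAM labelling and capillary electrophoresis; gain-of-signal fitted versus DMSO baseline.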

Read-out in assay [4]: Plasminogen activator inhibitor-1 (PAI1), SERPINE1 (gene 5054)
In words: BSK_BE3C_PAI1: BioMAP Diversity Plus: BE3C Assay for Plasminogen activator inhibitor-1 (PAI1) Biomarker Activity (AID 2283037). To be noted: actives raise or lower the signal; primary human bronchial epithelial cells. The method, boiled down: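 Human primary bronchial epithelial cells were exposed to chemical for 24 h, then PAI-1 was quantified by ELISA. Activity was fitted bidirectionally relative to the DMSO negative control baseline.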

Assay [5] can be described thus: BSK_hDFCGF_Proliferation: Cell Proliferation Assessment in the BioMAP Diversity Plus: hDFCGF Assay (AID 2283059).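 Further: curves fitted for both rise and fall of signal versus DMSO baseline.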 Particulars: primary human foreskin fibroblasts. The method, boiled down: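 Sub-confluent human foreskin fibroblast cultures receive test chemical […]. Relative cell number is quantified by sulforhodamine B staining (0.1%, after 10% TCA fixation) at 560 nm, with bidirectional fitting referenced to DMSO.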

Assay [6] has as its target human CYP2D6, CYP2D6 (gene 1565) (UniProt P10635). Nature of the assay: NVS_ADME_hCYP2D6: NovaScreen (NVS) CYP450-related Enzyme Activity (ADME) Assay for human CYP2D6 (AID 2283107; active means hit-call score of the fitted dose curve at least 0.9, where 1 is the maximum). The method, boiled down:
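Compounds were first tested in duplicate at 10 uM against recombinant enzyme produced in insect cells, with substrate turnover measured by fluorescence after 1 hour. Decreased signal, referenced to acetonitrile vehicle, was taken as reduced enzyme activity. Active chemicals went on to concentration-response testing.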

In assay [7] the target is Cellular tumor antigen p53 (Homo sapiens) (UniProt P04637). In words: TOX21_p53_BLA_p4_ratio: Tox21 HCT-116 p53 Agonism Beta-lactamase Assay, Ratio, Phase 4 (AID 2283601; active means hit-call score of the fitted dose curve at least 0.9, where 1 is the maximum). In a few lines:
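Signal is the blue/green (460nm/530nm) ratio of cleaved versus uncleaved CCF4-AM substrate, read after 2 h substrate loading. Cells were HCT116 carrying the p53-responsive beta-lactamase reporter, dosed 16 h at 37C, 5% CO2; CellTiter-Glo measured in parallel.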

Assay [8] can be described thus: CCTE_Shafer_MEA_dev_spike_duration_mean: CCTE's Neural Network Formation Assay for Mean Spike Duration, Shafer Lab (AID 2284051).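 Further: mean network spike duration pooled as area under curve over DIV 5 to 12 recordings; potency for a decrease in mean network spike duration versus DMSO.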 In a few lines:
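Rat cortical primary cultures, 48-well MEA (16 electrodes/well); compound from plating, renewed DIV 5, 9. Network spike duration (AxIS adaptive detector) recorded DIV 5/7/9/12, combined as trapezoidal AUC; loss direction vs DMSO.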

Read-out in assay [9]: Human Leukocyte Antigen - DR isotype (HLADR), HLA-DRA (gene 3122)
In words: BSK_3C_HLADR: BioMAP Diversity Plus: 3C Assay for Human Leukocyte Antigen - DR isotype (HLADR) Biomarker Activity (AID 2283019).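 On outcome: ELISA of cell-surface HLA-DR on HUVEC 24 h after dosing.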 To be noted: actives raise or lower the signal; primary human endothelial cells (HUVEC). The method, boiled down: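 Endothelial cells from human umbilical vein are treated with test chemical; after 24 h, HLA-DR levels are measured by ELISA. Data are fitted in both directions using DMSO as the baseline.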

Read-out in assay [10]: Macrophage colony-stimulating factor (MCSF), CSF1 (gene 1435)
In words: BSK_hDFCGF_MCSF: BioMAP Diversity Plus: hDFCGF Assay for Macrophage colony-stimulating factor (MCSF) Biomarker Activity (AID 2283060). To be noted: actives raise or lower the signal; primary human foreskin fibroblasts. In a few lines: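 M-CSF levels, determined by ELISA, are taken at 24 h after dosing human skin fibroblasts. Responses in either direction are fitted with DMSO serving as the baseline.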

Read-out in assay [11]: Interleukin 17F (IL17F), IL17F (gene 112744)
In words: BSK_BT_xIL17F: BioMAP Diversity Plus: BT Assay for Interleukin 17F (IL17F) Biomarker Activity (AID 2284243). To be noted: primary human B cells with PBMC. In a few lines:
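Measures secreted IL-17F from a human B cell plus PBMC co-culture at 24 h post-dose by Luminex xMAP, with DMSO defining baseline activity.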

Read-out in assay [12]: Urokinase-type plasminogen activator receptor (uPAR), PLAUR (gene 5329)
In words: BSK_4H_uPAR: BioMAP Diversity Plus: 4H Assay for Urokinase-type plasminogen activator receptor (uPAR) Biomarker Activity (AID 2283030). To be noted: actives raise or lower the signal; primary human endothelial cells (HUVEC). In a few lines:
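Chemicals are dosed onto human vascular endothelial primary cells (umbilical vein). After 24 h, uPAR is read by ELISA. Gain or loss of signal is fitted relative to DMSO.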

The target of assay [13] is Estrogen receptor (Homo sapiens) + Estrogen receptor beta (Homo sapiens) (UniProt P03372+Q92731). Nature of the assay: OT_ER_ERaERb_1440: Odyssey Thera (OT) 24-hour HEK293T Protein-Complementation Assay for Estrogen Receptor-alpha/-beta Homodimer (AID 2283356; active means hit-call score of the fitted dose curve at least 0.9, where 1 is the maximum;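 further: heteromer of ER alpha and ER beta binding domains; hits raise reporter fluorescence and both agonists and antagonists give an increase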). The method, boiled down:
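Heterodimerisation of ERα (aa 310-547) and ERβ (aa 263-489) ligand binding domains was tracked as fluorescence gain in stably transfected HEK293T cells following 24 h dosing, normalised to DMSO controls.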

Assay [14] addresses Retinoic acid receptor RXR-alpha (Homo sapiens) (UniProt P19793). In words: OT_NURR1_NURR1RXRa_0480: Odyssey Thera (OT) 8-hour HEK293T Protein Complementation Assay for Nurr1/retinoid X receptor (RXR) (AID 2283385; active means hit-call score of the fitted dose curve at least 0.9, where 1 is the maximum). In a few lines: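 HEK293T cells expressing Nurr1 and RXRα fused to reporter fragments were dosed with compound for 8 hours. Complex formation was read as fluorescence intensity and analysed as gain of signal against DMSO as baseline.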

Read-out in assay [15]: growth arrest and DNA damage 45 (GADD45G), GADD45G (gene 10912)
Nature of the assay: LTEA_HepaRG_GADD45G: Life Technologies and Expression Analysis (LTEA) Assay for growth arrest and DNA damage 45 (GADD45G) using HepaRG (AID 2283499). Particulars: actives raise or lower the signal; mRNA level, 48 h. The method, boiled down:
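Human hepatic HepaRG line treated 48 h with chemicals (eight concentrations, half-log steps from 100 uM); transcript induction or repression of GADD45G scored by qRT-PCR versus DMSO vehicle.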

Read-out in assay [16]: Lipase C (LIPC), LIPC (gene 3990)
Nature of the assay: LTEA_HepaRG_LIPC: Life Technologies and Expression Analysis (LTEA) Assay for Lipase C (LIPC) using HepaRG (AID 2283514). To be noted: actives raise or lower the signal; mRNA level, 48 h. The method, boiled down: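 Read-out is LIPC transcript level by TaqMan qRT-PCR, normalized to three housekeeping genes, after 48 h chemical treatment of human HepaRG liver cells. Curves span eight concentrations topping at 100 uM; activity in either direction scored relative to 0.5% DMSO.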

Assay [17] can be described thus: Tanguay_ZF_120hpf_OTIC_legacy: (Legacy) Oregon State University Tanguay Lab 120 Hour Post-fertilization zebrafish Assay for Otic Vesicle Malformation (AID 2283639; active means hit-call score of the fitted dose curve at least 0.9, where 1 is the maximum).
Assay [18] addresses Estrogen receptor (Homo sapiens) (UniProt P03372). In words: ATG_hERa_XSP1: Attagene TRANS-FACTORIAL Multi-Species (XSP1) HepG2 Assay for human Estrogen Receptor (ESR1) (AID 2283780; active means hit-call score of the fitted dose curve at least 0.9, where 1 is the maximum). In a few lines: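 HepG2 cells transiently transfected with GAL4-UAS reporter units and chimeric NR-Gal4 constructs; 24 h after dosing, reporter mRNA quantified by RT-PCR and capillary electrophoresis. Medium contained 3 nM 6-alpha-fluorotestosterone; activity fitted as gain-of-signal versus DMSO.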

Molecules are shown by their SMILES. For part of these data: Shown are results outside the selection of hits, which stands elsewhere. The entries are a selection whose mix differs from that of the whole data set. Records with an inconclusive call do not appear. A structure can be active in one record and inactive in another. Activity calls are given as the source filed them. How the source made its calls, unless noted: active means hit-call score of the fitted dose curve at least 0.9, where 1 is the maximum; inactive means score below 0.9.

Turning to `COP(=S)(OC)Oc1ccc(SC)c(C)c1`, the AC50 in [1] was active: 20 µM. In addition, in assay [2], the compound was classed as inactive.
On to `CCOP(=S)(OCC)Oc1ccc2c(C)c(Cl)c(=O)oc2c1`, for which the call in assay [3], in assay [4] and in [7] was inactive. For the same compound, the AC50 in assay [5] was active: 7.6 µM; in assay [6], active: 1.21 µM; in assay [8], active: 27.5 µM.
With `CSc1nnc(C(C)(C)C)c(=O)n1N`, in assay [9], the result was inactive.
`CC(=O)C(Cl)C(=O)N(C)C` (stereo unspecified): the AC50 was active: 26.2 µM in assay [9] and active: 12.6 µM in [10].
Take `O=C1C=CC(=O)C=C1`: the compound was classed as inactive in assay [3]. Moreover, in assay [11], the AC50 was active: 20 µM.
Consider `C[C@]12CCC(=O)C=C1CC[C@@H]1[C@@H]2CC[C@]2(C)C(=O)CC[C@@H]12`, for which the AC50 in [3] is active: 26.2 µM; in assay [17] it was active: 33.7 µM; in assay [18] it was active: 0.0033 µM. Moreover, the outcome in assay [12], in assay [13], in assay [14], in [15] and in assay [16] was inactive.

One may read the AC50 as the midpoint of the concentration-response curve, whichever way the signal moves.

Source of the values: PubChem BioAssay (EPA / NIEHS).
